Results: PMC10163288
Some of the results follow.

B1: il10ra_site1_normal_mot_HHH_b2_03328_af2_000000127_0001_1_19_H_._HHH_b1_00148_0001_0000400018_0000002_0 (protein)
chain: SSSSDSRELYRLSREAAELFAEGNPEEAEEVLEEAIRIAQEAGNFILLFALEHLLRAIRESSSSS
B2: il10ra_site1_normal_mot_HHH_b2_08186_000000021_0001_43_56_H_._HHH_b1_07250_0001_0000200046_0000001_0 (protein)
chain: SSSSSIEEEIKELLEEIERAIEEGDKEEANRLLLRVLRLVLEANDAELLQRVWELLRLLASSSSS
B3: il10ra_site1_sap_16_mot_HHH_b2_00943_af2_000000149_0001_1_17_H_._HHH_b1_07249_0001_0000300022_0000001_0_0001 (protein)
chain: SSSSDVAELVRKVFEELLRLLREGNEEEAEKLVQEVLKELEERGDRLAVLVLKWAAERQRSSSSS
B4: il10ra_site1_normal_mot_HHH_b2_07440_af2_000000021_0001_1_18_H_._HHH_b1_03012_af2_0001_0000400012_0000002_0 (protein)
chain: SSSSDEELEEALRLSLEAFRLALRGNEEEARKVLEEAERLLEELGDPRALRIVRDLLRALSSSSS
B5: il10ra_site1_sap_18_mot_HHH_b1_08411_af2_000000053_0001_1_20_H_._HHH_b2_06398_0001_0000100001_0000002_0_0001_af2pred_0001 (protein)
chain: SSSSSREERLEELLERIEEALEEGDEELVLRLLLEVVKFALRLGDEEIIKRILELAEKLRSSSSS
B6: il10ra_site1_normal_mot_HHH_b2_08186_000000021_0001_43_56_H_._HHH_b2_01076_0001_0000100002_0000001_0 (protein)
chain: SSSSSSSSEVEEEVRRLLEEAEENPERAQRLLAEALRLAYEHSNQELLQEIWKVLRELSSSSSSS
B7: il10ra_site1_sap_9_mot_HHH_b2_04592_000000276_0001_41_54_H_._HHH_b2_05302_0001_0000100006_0000001_0_0001 (protein)
chain: SSSSSSRELYELSREAAELLRNGDPERAQEVVEEAIELAEEENNFAILFALRHLLRAIESSSSSS
B8: il10ra_site1_sap_17_mot_HHH_b2_05084_af2_000000250_0001_43_57_H_._26d30dbd745481c7b488aecb30247ba4_0001_0001_0000800006_0000001_0_0001_af2pred_0001 (protein)
chain: SSSSSSEEVIKLSRRALELYKDGNEEEAKEVLEEARELAEELNNELLRFLIESLQRRLDSSSSSS
B9: il10ra_site1_sap_24_mot_HHH_b1_02881_000000046_0001_1_20_H_._HHH_b1_02292_0001_0000300031_0000001_0_0001 (protein)
chain: SSSSSLHREVYELLREAAELDHEGNPEEAREVVEEALRIAEELGNWAFAEQARFLLRLIENSSSS
B10: il10ra_site1_sap_34_mot_HHH_b2_07145_000000158_0001_24_40_H_._HHH_b1_04490_af2_0001_0000100002_0000002_0_0001 (protein)
chain: SSSSTDKELIEAALRLLEQAIKHGDEELARFMIIAIRMKVEETNDEELEELLRELEKELNSSSSS
B11: il10ra_site1_normal_mot_HHH_b1_07641_af2_000000285_0001_1_21_H_._HHH_b1_00573_af2_0001_0000400014_0000002_0 (protein)
chain: SSSSSDEDSERVMELVERIAELAQEGNPEEARELLEELEELVRKLNNPIFEFVLRLLERDLSSSS
B12: il10ra_site1_normal_mot_HHH_b1_05056_000000217_0001_1_20_H_._HHH_b2_04275_0001_0000400021_0000001_0 (protein)
chain: SSSSSSEESEELLEELEEALRRGDRELIQELARRIIQEAFRLSDEELLQALWRLVKEYASSSSSS
B13: il10ra_site1_normal_mot_HHH_b1_06837_000000150_0001_20_37_H_._HHH_b2_08002_0001_0000100001_0000001_0 (protein)
chain: SSSSSDSERIYELSRKAAELHHEGNKEEAEKVLEEALELAEEAGNEVLLATLEFLERQIKSSSSS
B14: il10ra_site1_sap_11_mot_05ca327611f5605f0dd8494b449afcbf_0001_1_000000248_0001_35_51_H_._HHH_b1_07055_0001_0000900074_0000001_0_0001 (protein)
chain: SSSSSDEDQELLELLHELIELLLRGDEEEARRLAEEILRLAEELNDEKVFEMAEDLLKAISSSSS
B15: il10ra_site1_normal_mot_HHH_b1_02397_af2_000000085_0001_39_57_H_._HHH_b2_00805_0001_0000300013_0000001_0 (protein)
chain: SSSSSSDLEEYLEEIEELIEKGNPEEAARVSQEALRLIFRRGDEEALKLLWELNKLMASSSSSSS
B16: il10ra_site1_normal_mot_HHH_b2_04945_000000076_0001_1_19_H_._HHH_b2_00860_0001_0000100001_0000001_0 (protein)
chain: SSSSSADELFRRVRELIEKATQIEDEREAQELLEEALELAEENNNQVFEWAIRYLLELLRSSSSS
B17: il10ra_site1_sap_13_mot_HHH_b2_02693_af2_000000213_0001_19_35_H_._HHH_b2_05121_af2_0001_0000400021_0000003_0_0001_af2pred_0001 (protein)
chain: SSSSSQEEHVARIAEKALERLLELGDEERLRLTLRFIKFLAEQANDPEARELVEEIERLGSSSSS
B18: il10ra_site1_normal_mot_0750aae41c39e4229e2ea8fa354cc919_0001_1_000000144_0001_37_51_H_._ems_p1-16H-GBL-16H-GABBL-16H_0036_0001_0001_0002_af2_0001_0000200003_00 … (protein)
chain: SSSSAEVDAVLAEARRLATAAGDEKALAAIDYYEELKKLGKADPERLLAAATALLRYLLESSSSS
B19: il10ra_site1_normal_mot_fda5df8c19bda1ddfcc41857df859eb0_0001_1_000000120_0001_35_49_H_._HEEHE_0280_af2_0001_0000500008_0000001_0_af2pred_0001 (protein)
chain: SKEEATEKSIRAIAERAGVPSVEVTIENGEWHVTFSGDDERARYAAFTIEALARLLNLEVNLELK
B20: il10ra_site1_sap_16_mot_HHH_b1_06914_000000280_0001_1_18_H_._HHH_b1_05069_af2_0001_0000200005_0000001_0_0001 (protein)
chain: SSSSDEADEVFRLIEKAVELSRKDPEEAEEVLKRAEKIAEELGNRIMRWVIEFLERHIEELSSSS
B21: il10ra_site1_normal_mot_HHH_b1_06837_000000150_0001_20_37_H_._HHH_b1_05845_0001_0000600050_0000001_0 (protein)
chain: SSSSTEEIYKLLREASELLQEGNPEEAEKLLEEAERLAEELGNEVLLATIRALLRLIQRFLSSSS
B22: il10ra_site1_sap_19_mot_HHH_b1_03763_000000209_0001_22_38_H_._HHH_b2_03541_0001_0000200007_0000001_0_0001 (protein)
chain: SSSSSNEVAELLFKALRLLAEGNPEEAEEVAREAKELAEELGDEELLRYVEILKHFIEAHSSSSS
B23: il10ra_site1_normal_mot_HHH_b2_02537_000000065_0001_1_20_H_._HHH_b2_04376_0001_0000100013_0000001_0 (protein)
chain: SSSDEAFEIVRRAIERAAELARQGNPEEAEEVLERAREVAEENNNQALRFSLEQLLRAIEESSSS
B24: il10ra_site1_normal_mot_HHH_b2_04945_000000076_0001_1_19_H_._HHH_b2_05056_0001_0000400022_0000001_0 (protein)
chain: SSSSTDELFEEVRRIIEEAVRLYREGNPEEARRLVEEALELAEENNNFALVFALEHLLRDLSSSS

Molecular target: il10ra, Q13651
Assay: yeast display titration

Row | Binder | apparent Kd
1 | B1 | inactive: no binding seen
2 | B2 | inactive: no binding seen
3 | B3 | inactive: no binding seen
4 | B4 | inactive: no binding seen
5 | B5 | inactive: no binding seen
6 | B6 | inactive: no binding seen
7 | B7 | inactive: no binding seen
8 | B8 | inactive: no binding seen
9 | B9 | inactive: no binding seen
10 | B10 | inactive: no binding seen
11 | B11 | inactive: no binding seen
12 | B12 | inactive: no binding seen
13 | B13 | inactive: no binding seen
14 | B14 | inactive: no binding seen
15 | B15 | inactive: > 1040 nM
16 | B16 | inactive: no binding seen
17 | B17 | inactive: no binding seen
18 | B18 | inactive: no binding seen
19 | B19 | inactive: no binding seen
20 | B20 | inactive: no binding seen
21 | B21 | inactive: no binding seen
22 | B22 | inactive: no binding seen
23 | B23 | inactive: no binding seen
24 | B24 | inactive: no binding seen

From entry 13 to 16, copied from above:
Row | Binder | apparent Kd
13 | B13 | inactive: no binding seen
14 | B14 | inactive: no binding seen
15 | B15 | inactive: > 1040 nM
16 | B16 | inactive: no binding seen
